The source of these data is patent publication US20090172842A1.

Chains of the proteins cited; added tags and fusions are not shown. Lines headed by an entry give the natural chain unless they say otherwise; changes in a name come on top. Residues count along the entry.
UniProt P69249, residues 58-180: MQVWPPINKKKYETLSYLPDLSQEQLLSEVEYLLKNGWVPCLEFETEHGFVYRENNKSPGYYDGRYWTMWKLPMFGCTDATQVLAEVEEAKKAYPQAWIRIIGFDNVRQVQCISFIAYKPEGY
UniProt P24624: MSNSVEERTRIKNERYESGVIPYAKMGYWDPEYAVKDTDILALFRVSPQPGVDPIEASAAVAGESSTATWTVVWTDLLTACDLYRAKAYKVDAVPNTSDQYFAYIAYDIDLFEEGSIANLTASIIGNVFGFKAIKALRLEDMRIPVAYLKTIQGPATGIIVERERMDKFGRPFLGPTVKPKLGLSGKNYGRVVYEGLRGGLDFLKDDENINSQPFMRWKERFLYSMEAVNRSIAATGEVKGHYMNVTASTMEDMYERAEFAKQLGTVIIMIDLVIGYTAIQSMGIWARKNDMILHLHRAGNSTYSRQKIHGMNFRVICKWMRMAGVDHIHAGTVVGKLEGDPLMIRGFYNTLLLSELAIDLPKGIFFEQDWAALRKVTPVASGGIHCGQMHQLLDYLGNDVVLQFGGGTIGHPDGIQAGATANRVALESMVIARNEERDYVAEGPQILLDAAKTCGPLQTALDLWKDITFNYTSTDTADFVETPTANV

These are yes or no findings as the source states them, for the method shown. In cells and extracts the contact can be indirect. Some results given as binding are weak or reduced against the parent protein; the word gives no strength.

The target in the assay is endogenous tobacco RUBISCO small subunit (Nicotiana tabacum (tobacco)) (UniProt P69249). The assay can be described thus: Ni-NTA co-purification of SSU with LSU-6His from pTCP104-1 leaves; SDS-PAGE and Native-PAGE immunoblots with anti-His and anti-rbcS antibodies.

For the substance “Griffithsia monilis RUBISCO large subunit with C-terminal 6-His tag, product of the chloroplast transgene cpGMNrbcL (pTCP104 tobacco) (from UniProt P24624 1-488) (enzyme)”, the binding result is “binds”.
